Laboratory results reported in doi:10.1101/2020.05.08.084814.
These are yes or no findings as the source states them, for the method shown. Binding seen in cells or lysates may run through a third protein. Some results given as binding are weak or reduced against the parent protein; the word gives no strength.

T1: Stau1 (Staufen1) (Xenopus laevis (endogenous in oocytes)) (UniProt Q6GM35)
T1 sequence: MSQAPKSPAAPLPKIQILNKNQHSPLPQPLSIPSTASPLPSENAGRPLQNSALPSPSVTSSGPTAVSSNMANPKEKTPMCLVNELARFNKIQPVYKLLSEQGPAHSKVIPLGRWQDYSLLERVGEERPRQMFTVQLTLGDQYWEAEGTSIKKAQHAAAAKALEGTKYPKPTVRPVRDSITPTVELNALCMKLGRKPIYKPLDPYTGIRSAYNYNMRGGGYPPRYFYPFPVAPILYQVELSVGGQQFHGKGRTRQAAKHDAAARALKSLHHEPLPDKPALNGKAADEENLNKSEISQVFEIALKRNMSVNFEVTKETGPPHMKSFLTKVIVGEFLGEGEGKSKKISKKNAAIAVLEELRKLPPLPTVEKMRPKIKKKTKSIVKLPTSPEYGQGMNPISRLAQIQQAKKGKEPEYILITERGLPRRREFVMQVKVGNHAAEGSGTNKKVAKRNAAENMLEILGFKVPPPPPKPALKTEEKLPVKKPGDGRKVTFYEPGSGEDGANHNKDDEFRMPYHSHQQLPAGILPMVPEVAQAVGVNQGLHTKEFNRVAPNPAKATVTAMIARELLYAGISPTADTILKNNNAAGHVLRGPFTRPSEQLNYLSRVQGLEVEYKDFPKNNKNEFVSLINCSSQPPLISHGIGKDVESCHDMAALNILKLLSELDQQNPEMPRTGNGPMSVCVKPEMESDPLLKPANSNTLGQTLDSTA

T2: hnRNPAB (40LoVE) (Xenopus laevis (endogenous in oocytes))
T2 sequence: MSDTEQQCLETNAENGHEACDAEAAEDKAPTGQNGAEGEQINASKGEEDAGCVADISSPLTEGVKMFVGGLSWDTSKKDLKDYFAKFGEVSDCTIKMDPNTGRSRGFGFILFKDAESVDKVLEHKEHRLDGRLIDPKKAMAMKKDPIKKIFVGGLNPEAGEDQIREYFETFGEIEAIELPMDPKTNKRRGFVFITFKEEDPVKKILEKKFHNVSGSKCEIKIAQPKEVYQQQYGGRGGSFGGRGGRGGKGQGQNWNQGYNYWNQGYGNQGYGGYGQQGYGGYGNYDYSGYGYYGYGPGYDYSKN


Assays:
[1] = molecular target: T1, Stau1 (Staufen1) (Xenopus laevis (endogenous in oocytes)); assay: co-IP
[2] = molecular target: T2, hnRNPAB (40LoVE) (Xenopus laevis (endogenous in oocytes)); assay: co-IP

binding [1] | binding [2] | Binder
binds | – | hnRNPAB (40LoVE) (protein, UniProt A0A7M4CIF6 1-304) MSDTEQQCLETNAENGHEACDAEAAEDKAPTGQNGAEGEQINASKGEEDAGCVADISSPLTEGVKMFVGGLSWDTSKKDLKDYFAKFGEVSDCTIKMDPNTGRSRGFGFILFKDAESVDKVLEHKEHRLDGRLIDPKKAMAMKKDPIKKIFVGGLNPEAGEDQIREYFETFGEIEAIELPMDPKTNKRRGFVFITFKEEDPVKKILEKKFHNVSGSKCEIKIAQPKEVYQQQYGGRGGSFGGRGGRGGKGQGQNWNQGYNYWNQGYGNQGYGGYGQQGYGGYGNYDYSGYGYYGYGPGYDYSKN
– | binds | Stau1 (Staufen1) (protein, UniProt Q6GM35 1-708) MSQAPKSPAAPLPKIQILNKNQHSPLPQPLSIPSTASPLPSENAGRPLQNSALPSPSVTSSGPTAVSSNMANPKEKTPMCLVNELARFNKIQPVYKLLSEQGPAHSKVIPLGRWQDYSLLERVGEERPRQMFTVQLTLGDQYWEAEGTSIKKAQHAAAAKALEGTKYPKPTVRPVRDSITPTVELNALCMKLGRKPIYKPLDPYTGIRSAYNYNMRGGGYPPRYFYPFPVAPILYQVELSVGGQQFHGKGRTRQAAKHDAAARALKSLHHEPLPDKPALNGKAADEENLNKSEISQVFEIALKRNMSVNFEVTKETGPPHMKSFLTKVIVGEFLGEGEGKSKKISKKNAAIAVLEELRKLPPLPTVEKMRPKIKKKTKSIVKLPTSPEYGQGMNPISRLAQIQQAKKGKEPEYILITERGLPRRREFVMQVKVGNHAAEGSGTNKKVAKRNAAENMLEILGFKVPPPPPKPALKTEEKLPVKKPGDGRKVTFYEPGSGEDGANHNKDDEFRMPYHSHQQLPAGILPMVPEVAQAVGVNQGLHTKEFNRVAPNPAKATVTAMIARELLYAGISPTADTILKNNNAAGHVLRGPFTRPSEQLNYLSRVQGLEVEYKDFPKNNKNEFVSLINCSSQPPLISHGIGKDVESCHDMAALNILKLLSELDQQNPEMPRTGNGPMSVCVKPEMESDPLLKPANSNTLGQTLDSTA
